Laboratory results: PubChem BioAssay AID1224828 (NIAID, 2016)
Here is an unselected part of about 17,000 reagents. 762 of them (4.5%) were called active. 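Active calls include both raised and lowered p65 entry, mostly lowered; wells with fewer than 50 cells lack a z-score.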 Raw values are not corrected between plates.

- Screen: 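Regulators linking TLR4 signalling to p65 nuclear translocation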 (primary screen)
- System: mouse RAW264.7 G9 macrophage reporter cells (GFP-p65, Tnf promoter-mCherry)
- Reagents: siRNA pool against mouse genes, 100 nM
- Time to read-out: 2 days siRNA transfection, then 40 min LPS before fixation
- Conditions: LPS (Salmonella minnesota R595) at 10 ng/ml
- Measurement: 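Imaged p65 nuclear translocation ratio, normalised to the plate median, converted to robust z-scores and averaged across two replicates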
- Scale: p65 translocation robust z-score: higher = more nuclear NF-kappaB p65 after LPS than the plate median; nuclear/cytoplasmic p65 ratio: higher = more nuclear NF-kappaB p65
- Rule for the call: 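Active if robust z is above 3.3 (negative regulators) or below -1.56, the Tlr4 control median (positive regulators); activity score 50 or more; control wells not called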
- Meaning of the calls: active = hit (p65 shift raised or lowered); inactive = no clear change

no.	gene knocked down	p65 translocation robust z-score	nuclear/cytoplasmic p65 ratio, rep 1	nuclear/cytoplasmic p65 ratio, rep 2	low cell count flag	Call
1	Cacna2d1 (calcium channel, voltage-dependent, alpha2/delta subunit 1)	0.02	1.61	1.63	enough cells to score	inactive
2	Siae (sialic acid acetylesterase)	0.45	1.52	1.26	enough cells to score	inactive
3	Six3 (sine oculis-related homeobox 3)	0.18	1.72	1.44	enough cells to score	inactive
4	Tbc1d25 (TBC1 domain family, member 25)	-1.23	1.46	1.41	enough cells to score	inactive
5	Epha6 (Eph receptor A6)	-0.49	1.54	1.38	enough cells to score	inactive
6	Myo1e (myosin IE)	0.25	1.86	1.6	enough cells to score	inactive
7	Or5k1b (olfactory receptor family 5 subfamily K member 1B)	1.07	1.79	1.55	enough cells to score	inactive
8	Nsmce1 (NSE1 homolog, SMC5-SMC6 complex component)	0.46	1.46	1.53	enough cells to score	inactive
9	Pex3 (peroxisomal biogenesis factor 3)	0.59	1.55	1.46	enough cells to score	inactive
10	Txndc11 (thioredoxin domain containing 11)		1.23	1.21	fewer than 50 cells per well; well left out of scoring	inactive
11	Igfbpl1 (insulin-like growth factor binding protein-like 1)	-1.83	1.34	1.14	enough cells to score	active
12	Olfr197 (olfactory receptor 197)	-1.09	1.44	1.29	enough cells to score	inactive
13	Rpl13 (ribosomal protein L13)	-0.51	1.32	1.19	enough cells to score	inactive
14	Mpst (mercaptopyruvate sulfurtransferase)	0.37	1.48	1.39	enough cells to score	inactive
15	Lrrc75b (leucine rich repeat containing 75B)	0.47	1.63	1.81	enough cells to score	inactive
16	Alg12 (ALG12 alpha-1,6-mannosyltransferase)	0.67	1.73	1.77	enough cells to score	inactive
17	Smyd2 (SET and MYND domain containing 2)	0.6	1.61	1.66	enough cells to score	inactive
18	Carhsp1 (calcium regulated heat stable protein 1)	-1.17	1.44	1.57	enough cells to score	inactive
19	Elovl7 (ELOVL fatty acid elongase 7)	0	1.39	1.43	enough cells to score	inactive
20	Lrrc3b (leucine rich repeat containing 3B)	-0.74	1.53	1.65	enough cells to score	inactive

The list goes on, starting with the last 4 of the part before.
no.	gene knocked down	p65 translocation robust z-score	nuclear/cytoplasmic p65 ratio, rep 1	nuclear/cytoplasmic p65 ratio, rep 2	low cell count flag	Call
17	Smyd2 (SET and MYND domain containing 2)	0.6	1.61	1.66	enough cells to score	inactive
18	Carhsp1 (calcium regulated heat stable protein 1)	-1.17	1.44	1.57	enough cells to score	inactive
19	Elovl7 (ELOVL fatty acid elongase 7)	0	1.39	1.43	enough cells to score	inactive
20	Lrrc3b (leucine rich repeat containing 3B)	-0.74	1.53	1.65	enough cells to score	inactive
21	Cep57 (centrosomal protein 57)		1.16	1.45	fewer than 50 cells per well; well left out of scoring	inactive
22	Shox2 (SHOX homeobox 2)	0.52	1.61	1.64	enough cells to score	inactive
23	Emilin2 (elastin microfibril interfacer 2)	-0.53	1.33	1.3	enough cells to score	inactive
24	Pla2g6 (phospholipase A2, group VI)	-0.84	1.42	1.26	enough cells to score	inactive
25	Aspdh (aspartate dehydrogenase domain containing)	0.37	1.6	1.49	enough cells to score	inactive
26	F2rl2 (coagulation factor II thrombin receptor like 2)		1.67	1.6	fewer than 50 cells per well; well left out of scoring	inactive
27	Agr2 (anterior gradient 2)	-0.48	1.58	1.56	enough cells to score	inactive
28	Reg2 (regenerating islet-derived 2)	-0.75	1.24	1.2	enough cells to score	inactive
29	Tubb3 (tubulin, beta 3 class III)	0.1	1.55	1.5	enough cells to score	inactive
30	Cbx2 (chromobox 2)	-0.64	1.51	1.67	enough cells to score	inactive
31	Tacr1 (tachykinin receptor 1)	-1.25	1.38	1.35	enough cells to score	inactive
32	Mtus2 (microtubule associated tumor suppressor candidate 2)	-1.05	1.2	1.47	enough cells to score	inactive
33	Mbnl3 (muscleblind like splicing factor 3)	-0.95	1.58	1.22	enough cells to score	inactive
34	Gm56926 (predicted gene, 56926)	-0.81	1.52	1.64	enough cells to score	inactive
35	Or4a15 (olfactory receptor family 4 subfamily A member 15)		1.43	1.46	fewer than 50 cells per well; well left out of scoring	inactive
36	Retnlg (resistin like gamma)	0.06	1.38	1.27	enough cells to score	inactive
37	Htt (huntingtin)	0	1.42	1.39	enough cells to score	inactive
38	Wdfy1 (WD repeat and FYVE domain containing 1)	1.06	1.5	1.41	enough cells to score	inactive
39	Fsip1 (fibrous sheath-interacting protein 1)	1.77	1.83	1.73	enough cells to score	inactive
40	Klra4 (killer cell lectin-like receptor, subfamily A, member 4)	-1.03	1.22	1.25	enough cells to score	inactive
